These results are taken from PMC12095580, “Wnt signalosome assembly is governed by conformational flexibility of Axin and by the AP2 clathrin adaptor” (Nature Communications, 2025).

By UniProt entry, the sequences of proteins in these tests, tags left out. Residues count along the entry.
UniProt O75581, residues 20-1613: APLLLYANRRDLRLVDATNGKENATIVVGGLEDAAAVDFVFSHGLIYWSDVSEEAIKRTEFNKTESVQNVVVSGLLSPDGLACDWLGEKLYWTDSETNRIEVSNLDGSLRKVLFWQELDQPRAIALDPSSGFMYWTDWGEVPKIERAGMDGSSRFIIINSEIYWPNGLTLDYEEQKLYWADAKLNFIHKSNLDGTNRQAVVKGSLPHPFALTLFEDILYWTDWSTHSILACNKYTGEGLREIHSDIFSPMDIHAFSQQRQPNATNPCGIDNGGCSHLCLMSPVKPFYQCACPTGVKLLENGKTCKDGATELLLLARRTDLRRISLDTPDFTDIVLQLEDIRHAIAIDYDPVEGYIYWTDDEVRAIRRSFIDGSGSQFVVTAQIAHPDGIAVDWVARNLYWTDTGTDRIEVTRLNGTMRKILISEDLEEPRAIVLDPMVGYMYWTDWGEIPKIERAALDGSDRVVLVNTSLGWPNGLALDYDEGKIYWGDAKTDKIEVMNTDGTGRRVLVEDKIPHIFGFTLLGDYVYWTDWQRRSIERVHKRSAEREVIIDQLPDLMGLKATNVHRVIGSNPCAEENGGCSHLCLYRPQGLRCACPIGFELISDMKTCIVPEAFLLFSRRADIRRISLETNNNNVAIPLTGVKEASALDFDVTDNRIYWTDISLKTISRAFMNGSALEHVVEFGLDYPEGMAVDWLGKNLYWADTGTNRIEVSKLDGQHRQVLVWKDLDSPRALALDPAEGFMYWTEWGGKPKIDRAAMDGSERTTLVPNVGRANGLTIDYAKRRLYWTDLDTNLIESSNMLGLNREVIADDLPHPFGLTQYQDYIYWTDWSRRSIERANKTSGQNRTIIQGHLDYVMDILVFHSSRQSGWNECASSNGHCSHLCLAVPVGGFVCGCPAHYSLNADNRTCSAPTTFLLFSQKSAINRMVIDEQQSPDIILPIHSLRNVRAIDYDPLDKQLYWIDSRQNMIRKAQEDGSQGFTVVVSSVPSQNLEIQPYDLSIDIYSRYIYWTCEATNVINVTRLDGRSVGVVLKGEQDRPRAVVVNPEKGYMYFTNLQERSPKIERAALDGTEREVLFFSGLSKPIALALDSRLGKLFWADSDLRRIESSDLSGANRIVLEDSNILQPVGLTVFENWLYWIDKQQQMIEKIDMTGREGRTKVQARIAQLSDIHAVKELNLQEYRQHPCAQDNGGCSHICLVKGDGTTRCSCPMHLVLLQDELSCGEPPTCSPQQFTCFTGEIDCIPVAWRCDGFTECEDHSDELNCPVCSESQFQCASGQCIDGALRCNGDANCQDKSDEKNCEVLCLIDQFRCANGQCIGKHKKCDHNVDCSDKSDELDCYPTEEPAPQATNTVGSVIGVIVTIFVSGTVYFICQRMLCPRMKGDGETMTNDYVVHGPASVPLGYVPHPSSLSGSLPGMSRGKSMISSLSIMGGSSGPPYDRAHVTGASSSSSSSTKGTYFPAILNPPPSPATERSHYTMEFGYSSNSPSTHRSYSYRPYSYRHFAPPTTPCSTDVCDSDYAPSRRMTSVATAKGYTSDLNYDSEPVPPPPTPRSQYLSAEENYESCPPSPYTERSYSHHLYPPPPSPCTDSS
UniProt Q5TCX8: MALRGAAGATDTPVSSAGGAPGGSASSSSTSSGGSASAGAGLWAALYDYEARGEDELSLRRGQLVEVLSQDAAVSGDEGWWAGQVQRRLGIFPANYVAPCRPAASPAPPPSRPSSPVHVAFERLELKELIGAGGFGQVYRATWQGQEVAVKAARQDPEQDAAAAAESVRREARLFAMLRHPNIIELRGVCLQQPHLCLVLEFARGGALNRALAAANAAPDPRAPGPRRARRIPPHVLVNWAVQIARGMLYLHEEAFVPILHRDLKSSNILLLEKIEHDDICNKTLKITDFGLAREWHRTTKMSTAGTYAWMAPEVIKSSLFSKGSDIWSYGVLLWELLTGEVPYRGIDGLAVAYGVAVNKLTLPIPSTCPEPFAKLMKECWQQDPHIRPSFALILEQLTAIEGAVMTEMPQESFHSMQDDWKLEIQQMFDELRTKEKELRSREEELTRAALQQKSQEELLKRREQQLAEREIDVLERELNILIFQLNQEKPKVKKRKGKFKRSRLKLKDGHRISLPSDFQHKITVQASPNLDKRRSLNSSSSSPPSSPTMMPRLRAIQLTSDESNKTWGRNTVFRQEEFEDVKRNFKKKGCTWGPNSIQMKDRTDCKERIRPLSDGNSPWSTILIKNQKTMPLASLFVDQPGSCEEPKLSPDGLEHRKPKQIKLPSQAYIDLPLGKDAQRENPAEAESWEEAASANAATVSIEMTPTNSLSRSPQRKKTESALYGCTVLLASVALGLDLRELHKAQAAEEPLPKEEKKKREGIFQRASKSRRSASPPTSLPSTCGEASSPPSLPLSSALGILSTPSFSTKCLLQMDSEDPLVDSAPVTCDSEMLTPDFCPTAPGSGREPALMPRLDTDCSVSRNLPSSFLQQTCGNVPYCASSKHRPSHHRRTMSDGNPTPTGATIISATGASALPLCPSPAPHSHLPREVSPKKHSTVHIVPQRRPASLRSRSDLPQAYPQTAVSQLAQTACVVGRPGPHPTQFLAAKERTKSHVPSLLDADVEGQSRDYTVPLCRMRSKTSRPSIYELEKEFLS
UniProt Q6P5Z2: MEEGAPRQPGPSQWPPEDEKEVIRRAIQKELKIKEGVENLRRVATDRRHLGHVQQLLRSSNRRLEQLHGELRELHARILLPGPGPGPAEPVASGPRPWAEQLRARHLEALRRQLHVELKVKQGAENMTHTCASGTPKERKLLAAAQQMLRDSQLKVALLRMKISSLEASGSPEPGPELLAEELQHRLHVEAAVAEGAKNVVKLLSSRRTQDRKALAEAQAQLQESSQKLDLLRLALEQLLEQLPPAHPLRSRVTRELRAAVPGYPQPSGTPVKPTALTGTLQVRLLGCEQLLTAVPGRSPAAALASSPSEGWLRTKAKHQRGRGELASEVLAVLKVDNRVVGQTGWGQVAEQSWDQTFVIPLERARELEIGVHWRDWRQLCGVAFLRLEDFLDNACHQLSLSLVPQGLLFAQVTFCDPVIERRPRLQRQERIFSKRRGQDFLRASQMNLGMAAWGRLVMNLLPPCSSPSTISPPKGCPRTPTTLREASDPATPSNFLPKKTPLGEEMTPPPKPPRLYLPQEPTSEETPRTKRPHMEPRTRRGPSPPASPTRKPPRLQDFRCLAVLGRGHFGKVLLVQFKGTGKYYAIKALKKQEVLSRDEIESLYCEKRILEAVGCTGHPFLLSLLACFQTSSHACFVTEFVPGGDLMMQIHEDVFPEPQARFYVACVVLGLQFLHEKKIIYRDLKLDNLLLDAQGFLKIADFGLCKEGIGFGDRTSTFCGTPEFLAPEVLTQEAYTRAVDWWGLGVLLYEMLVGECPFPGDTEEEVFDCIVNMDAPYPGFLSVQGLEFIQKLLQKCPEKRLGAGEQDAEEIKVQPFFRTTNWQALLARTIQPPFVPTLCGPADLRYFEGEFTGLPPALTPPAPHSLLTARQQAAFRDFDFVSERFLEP
UniProt P49840: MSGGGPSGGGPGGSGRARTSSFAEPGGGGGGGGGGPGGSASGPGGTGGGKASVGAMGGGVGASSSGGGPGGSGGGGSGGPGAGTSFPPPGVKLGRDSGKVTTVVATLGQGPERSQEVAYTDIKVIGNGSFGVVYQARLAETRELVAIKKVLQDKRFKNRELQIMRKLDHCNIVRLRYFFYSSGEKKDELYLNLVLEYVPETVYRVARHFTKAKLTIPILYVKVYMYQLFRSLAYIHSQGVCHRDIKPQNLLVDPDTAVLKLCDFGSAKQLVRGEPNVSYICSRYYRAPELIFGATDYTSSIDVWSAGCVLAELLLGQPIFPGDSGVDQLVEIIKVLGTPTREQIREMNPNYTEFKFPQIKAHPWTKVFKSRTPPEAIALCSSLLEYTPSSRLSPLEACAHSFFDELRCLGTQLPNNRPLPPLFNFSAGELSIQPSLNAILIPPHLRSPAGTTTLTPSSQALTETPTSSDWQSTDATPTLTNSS
UniProt O94921: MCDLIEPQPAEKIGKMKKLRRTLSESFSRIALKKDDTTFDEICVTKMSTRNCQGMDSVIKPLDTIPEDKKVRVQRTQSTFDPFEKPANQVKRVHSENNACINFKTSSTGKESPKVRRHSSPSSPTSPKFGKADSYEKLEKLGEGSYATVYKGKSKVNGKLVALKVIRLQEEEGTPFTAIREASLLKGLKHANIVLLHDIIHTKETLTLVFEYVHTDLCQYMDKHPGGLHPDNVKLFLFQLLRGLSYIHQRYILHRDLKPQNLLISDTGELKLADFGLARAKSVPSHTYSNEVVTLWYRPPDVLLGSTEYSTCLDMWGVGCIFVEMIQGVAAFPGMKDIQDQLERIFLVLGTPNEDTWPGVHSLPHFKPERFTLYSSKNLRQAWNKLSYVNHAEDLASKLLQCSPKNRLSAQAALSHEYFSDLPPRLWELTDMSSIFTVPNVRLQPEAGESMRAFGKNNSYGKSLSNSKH
UniProt O15169: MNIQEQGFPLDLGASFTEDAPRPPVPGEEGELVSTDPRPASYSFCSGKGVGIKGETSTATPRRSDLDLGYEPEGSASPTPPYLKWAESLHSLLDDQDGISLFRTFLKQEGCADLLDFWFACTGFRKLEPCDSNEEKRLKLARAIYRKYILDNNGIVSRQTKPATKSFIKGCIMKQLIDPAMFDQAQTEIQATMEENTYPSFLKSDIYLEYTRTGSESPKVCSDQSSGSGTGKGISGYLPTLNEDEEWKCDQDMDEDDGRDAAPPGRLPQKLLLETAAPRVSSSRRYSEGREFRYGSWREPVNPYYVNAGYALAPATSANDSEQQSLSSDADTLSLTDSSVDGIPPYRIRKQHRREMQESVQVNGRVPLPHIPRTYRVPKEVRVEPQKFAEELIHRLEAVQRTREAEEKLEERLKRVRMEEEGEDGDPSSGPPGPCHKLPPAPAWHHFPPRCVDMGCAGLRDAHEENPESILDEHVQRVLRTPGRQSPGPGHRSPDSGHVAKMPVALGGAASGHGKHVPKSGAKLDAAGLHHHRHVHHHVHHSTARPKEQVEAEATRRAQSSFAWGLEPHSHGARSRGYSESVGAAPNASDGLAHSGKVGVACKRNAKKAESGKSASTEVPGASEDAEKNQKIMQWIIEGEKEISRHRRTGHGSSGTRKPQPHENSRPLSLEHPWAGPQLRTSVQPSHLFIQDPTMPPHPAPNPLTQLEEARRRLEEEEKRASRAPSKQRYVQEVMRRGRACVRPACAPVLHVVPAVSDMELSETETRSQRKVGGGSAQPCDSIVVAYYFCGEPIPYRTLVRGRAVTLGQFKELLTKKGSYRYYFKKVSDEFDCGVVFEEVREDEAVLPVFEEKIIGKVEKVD
UniProt Q2M2I8: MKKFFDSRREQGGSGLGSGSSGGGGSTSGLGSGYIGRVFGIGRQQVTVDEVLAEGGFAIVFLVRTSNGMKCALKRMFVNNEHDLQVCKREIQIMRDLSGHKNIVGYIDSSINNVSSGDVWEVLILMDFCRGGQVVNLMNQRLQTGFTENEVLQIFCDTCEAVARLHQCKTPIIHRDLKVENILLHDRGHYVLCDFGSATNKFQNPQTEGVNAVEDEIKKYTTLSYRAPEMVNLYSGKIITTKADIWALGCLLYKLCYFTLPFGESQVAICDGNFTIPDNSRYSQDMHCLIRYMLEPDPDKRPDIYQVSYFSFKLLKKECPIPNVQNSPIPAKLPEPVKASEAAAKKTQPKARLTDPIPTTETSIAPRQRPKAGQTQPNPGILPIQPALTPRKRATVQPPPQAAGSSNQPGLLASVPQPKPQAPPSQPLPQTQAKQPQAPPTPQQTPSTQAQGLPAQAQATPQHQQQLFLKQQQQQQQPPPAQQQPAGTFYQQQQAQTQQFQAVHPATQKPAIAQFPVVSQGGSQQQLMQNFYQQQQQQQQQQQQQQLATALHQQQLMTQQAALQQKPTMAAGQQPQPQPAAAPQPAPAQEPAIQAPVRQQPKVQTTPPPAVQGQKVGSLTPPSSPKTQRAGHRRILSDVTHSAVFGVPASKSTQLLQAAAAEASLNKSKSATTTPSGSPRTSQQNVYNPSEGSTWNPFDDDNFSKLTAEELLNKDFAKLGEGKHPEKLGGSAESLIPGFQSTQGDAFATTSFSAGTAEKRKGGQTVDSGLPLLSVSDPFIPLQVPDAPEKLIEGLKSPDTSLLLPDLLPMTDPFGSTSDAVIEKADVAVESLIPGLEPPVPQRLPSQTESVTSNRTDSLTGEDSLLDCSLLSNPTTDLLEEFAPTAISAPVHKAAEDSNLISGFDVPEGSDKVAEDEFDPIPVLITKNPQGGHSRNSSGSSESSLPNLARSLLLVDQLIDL

Experiment [1] addresses LRP6-TurboID (UniProt O75581). The experiment in a line: proximity labelling; TurboID: tetracycline-induced LRP6-TurboID baits in FlpIn T-REx HEK293 cells, biotin for 2 h with or without Wnt3a, streptavidin pull-down, LC-MS/MS.
Experiment [2] concerns the target LRP6-BirA* (UniProt O75581). Briefly: proximity labelling; BioID: tetracycline-induced LRP6-BirA* baits in FlpIn T-REx HEK293 cells, biotin for 12 h in Wnt3a-conditioned medium, streptavidin pull-down, LC-MS/MS.

No constants are given. Whether binding was seen depends on the method and setting. Binding seen in cells or lysates may run through a third protein. Here binding means that the protein was enriched with, or labelled near, the bait; the list need not be complete.

Consider “μ subunit of AP2 (endogenous) (from UniProt Q96CW1 1-435)”, for which, in experiment [1], the binding entry is “binds”.

In the case of “mitogen-activated kinase 4 (MLK4) (from UniProt Q5TCX8 1-1036) (enzyme)”, in experiment [1], the binding entry is reported as “binds”.

Regarding “PKN3 (from UniProt Q6P5Z2 1-889) (enzyme)”, in experiment [1], the binding entry is given as “binds”.

Regarding “GSK3α (endogenous) (from UniProt P49840 1-483) (enzyme)”, the binding result in experiment [2] is “binds”.

As for “CDK14 (from UniProt O94921 1-469) (enzyme)”, the binding entry in experiment [1] is on record as “binds”.

Consider “Axin1 (endogenous) (from UniProt O15169 1-862)”, for which the binding result in experiment [2] is given as “binds”.

“AAK1 (from UniProt Q2M2I8 1-961) (enzyme)”: the binding entry in experiment [1] is recorded as “binds”.

As for “large β subunit of AP2 (from UniProt P63010 1-937)”, in experiment [1], the binding result is given as “binds”.

In the case of DAAM1 (from UniProt Q9Y4D1 1-1078), the binding result in experiment [1] is listed as “binds”.

As to “protein kinase N1 (PKN1) (from UniProt Q16512 1-942) (enzyme)”, the binding entry in experiment [1] was “binds”.

“CK1γ3 (from UniProt Q9Y6M4 1-447) (enzyme)”: the binding entry in experiment [1] was “binds”.

B1: large ε subunit of AP4 (protein, UniProt Q9UPM8 1-1137)
chain: MSDIVEKTLTALPGLFLQNQPGGGPAAAKASFSSRLGSLVRGITALTSKHEEEKLIQQELSSLKATVSAPTTTLKMMKECMVRLIYCEMLGYDASFGYIHAIKLAQQGNLLEKRVGYLAVSLFLHESHELLLLLVNTVVKDLQSTNLVEVCMALTVVSQIFPCEMIPAVLPLIEDKLQHSKEIVRRKAVLALYKFHLIAPNQVQHIHIKFRKALCDRDVGVMAASLHIYLRMIKENSSGYKDLTGSFVTILKQVVGGKLPVEFNYHSVPAPWLQIQLLRILGLLGKDDQRTSELMYDVLDESLRRAELNHNVTYAILFECVHTVYSIYPKSELLEKAAKCIGKFVLSPKINLKYLGLKALTYVIQQDPTLALQHQMTIIECLDHPDPIIKRETLELLYRITNAQNITVIVQKMLEYLHQSKEEYVIVNLVGKIAELAEKYAPDNAWFIQTMNAVFSVGGDVMHPDIPNNFLRLLAEGFDDETEDQQLRLYAVQSYLTLLDMENVFYPQRFLQVMSWVLGEYSYLLDKETPEEVIAKLYKLLMNDSVSSETKAWLIAAVTKLTSQAHSSNTVERLIHEFTISLDTCMRQHAFELKHLHENVELMKSLLPVDRSCEDLVVDASLSFLDGFVAEGLSQGAAPYKPPHQRQEEKLSQEKVLNFEPYGLSFSSSGFTGRQSPAGISLGSDVSGNSAETGLKETNSLKLEGIKKLWGKEGYLPKKESKTGDESGALPVPQESIMENVDQAITKKDQSQVLTQSKEEKEKQLLASSLFVGLGSESTINLLGKADTVSHKFRRKSKVKEAKSGETTSTHNMTCSSFSSLSNVAYEDDYYSNTLHDTGDKELKKFSLTSELLDSESLTELPLVEKFSYCSLSTPSLFANNNMEIFHPPQSTAASVAKESSLASSFLEETTEYIHSNAMEVCNNETISVSSYKIWKDDCLLMVWSVTNKSGLELKSADLEIFPAENFKVTEQPGCCLPVMEAESTKSFQYSVQIEKPFTEGNLTGFISYHMMDTHSAQLEFSVNLSLLDFIRPLKISSDDFGKLWLSFANDVKQNVKMSESQAALPSALKTLQQKLRLHIIEIIGNEGLLACQLLPSIPCLLHCRVHADVLALWFRSSCSTLPDYLLYQCQKVMEGS
For B1, the binding entry in experiment [1] is “binds”.

B2: threonine tyrosine kinase (TTK, aka MPS1) (enzyme, UniProt P33981 1-857)
chain: MESEDLSGRELTIDSIMNKVRDIKNKFKNEDLTDELSLNKISADTTDNSGTVNQIMMMANNPEDWLSLLLKLEKNSVPLSDALLNKLIGRYSQAIEALPPDKYGQNESFARIQVRFAELKAIQEPDDARDYFQMARANCKKFAFVHISFAQFELSQGNVKKSKQLLQKAVERGAVPLEMLEIALRNLNLQKKQLLSEEEKKNLSASTVLTAQESFSGSLGHLQNRNNSCDSRGQTTKARFLYGENMPPQDAEIGYRNSLRQTNKTKQSCPFGRVPVNLLNSPDCDVKTDDSVVPCFMKRQTSRSECRDLVVPGSKPSGNDSCELRNLKSVQNSHFKEPLVSDEKSSELIITDSITLKNKTESSLLAKLEETKEYQEPEVPESNQKQWQSKRKSECINQNPAASSNHWQIPELARKVNTEQKHTTFEQPVFSVSKQSPPISTSKWFDPKSICKTPSSNTLDDYMSCFRTPVVKNDFPPACQLSTPYGQPACFQQQQHQILATPLQNLQVLASSSANECISVKGRIYSILKQIGSGGSSKVFQVLNEKKQIYAIKYVNLEEADNQTLDSYRNEIAYLNKLQQHSDKIIRLYDYEITDQYIYMVMECGNIDLNSWLKKKKSIDPWERKSYWKNMLEAVHTIHQHGIVHSDLKPANFLIVDGMLKLIDFGIANQMQPDTTSVVKDSQVGTVNYMPPEAIKDMSSSRENGKSKSKISPKSDVWSLGCILYYMTYGKTPFQQIINQISKLHAIIDPNHEIEFPDIPEKDLQDVLKCCLKRDPKQRISIPELLAHPYVQIQTHPVNQMAKGTTEEMKYVLGQLVGLNSPNSILKAAKTLYEHYSGGESHNSSSSKTFEKKRGKK
As for B2, the binding result in experiment [2] and in experiment [1] was “binds” each time.

B3: DDX18 (protein, UniProt Q9NVP1 1-670)
chain: MSHLPMKLLRKKIEKRNLKLRQRNLKFQGASNLTLSETQNGDVSEETMGSRKVKKSKQKPMNVGLSETQNGGMSQEAVGNIKVTKSPQKSTVLTNGEAAMQSSNSESKKKKKKKRKMVNDAEPDTKKAKTENKGKSEEESAETTKETENNVEKPDNDEDESEVPSLPLGLTGAFEDTSFASLCNLVNENTLKAIKEMGFTNMTEIQHKSIRPLLEGRDLLAAAKTGSGKTLAFLIPAVELIVKLRFMPRNGTGVLILSPTRELAMQTFGVLKELMTHHVHTYGLIMGGSNRSAEAQKLGNGINIIVATPGRLLDHMQNTPGFMYKNLQCLVIDEADRILDVGFEEELKQIIKLLPTRRQTMLFSATQTRKVEDLARISLKKEPLYVGVDDDKANATVDGLEQGYVVCPSEKRFLLLFTFLKKNRKKKLMVFFSSCMSVKYHYELLNYIDLPVLAIHGKQKQNKRTTTFFQFCNADSGTLLCTDVAARGLDIPEVDWIVQYDPPDDPKEYIHRVGRTARGLNGRGHALLILRPEELGFLRYLKQSKVPLSEFDFSWSKISDIQSQLEKLIEKNYFLHKSAQEAYKSYIRAYDSHSLKQIFNVNNLNLPQVALSFGFKVPPFVDLNVNSNEGKQKKRGGGGGFGYQKTKKVEKSKIFKHISKKSSDSRQFSH
Take B3: the binding result in experiment [1] is listed as “binds”.

B4: Gadkin (protein, UniProt Q63HQ0 1-302)
chain: MGNCCWTQCFGLLRKEAGRLQRVGGGGGSKYFRTCSRGEHLTIEFENLVESDEGESPGSSHRPLTEEEIVDLRERHYDSIAEKQKDLDKKIQKELALQEEKLRLEEEALYAAQREAARAAKQRKLLEQERQRIVQQYHPSNNGEYQSSGPEDDFESCLRNMKSQYEVFRSSRLSSDATVLTPNTESSCDLMTKTKSTSGNDDSTSLDLEWEDEEGMNRMLPMRERSKTEEDILRAALKYSNKKTGSNPTSASDDSNGLEWENDFVSAEMDDNGNSEYSGFVNPVLELSDSGIRHSDTDQQTR
B4: the binding result in experiment [1] is reported as “binds”.
